The experiment deals with T1, FLAG-tagged mouse perilipin 5 (Plin5), transgene of MHC-Plin5 mice (mouse) (UniProt Q8BVZ1).
T1 sequence: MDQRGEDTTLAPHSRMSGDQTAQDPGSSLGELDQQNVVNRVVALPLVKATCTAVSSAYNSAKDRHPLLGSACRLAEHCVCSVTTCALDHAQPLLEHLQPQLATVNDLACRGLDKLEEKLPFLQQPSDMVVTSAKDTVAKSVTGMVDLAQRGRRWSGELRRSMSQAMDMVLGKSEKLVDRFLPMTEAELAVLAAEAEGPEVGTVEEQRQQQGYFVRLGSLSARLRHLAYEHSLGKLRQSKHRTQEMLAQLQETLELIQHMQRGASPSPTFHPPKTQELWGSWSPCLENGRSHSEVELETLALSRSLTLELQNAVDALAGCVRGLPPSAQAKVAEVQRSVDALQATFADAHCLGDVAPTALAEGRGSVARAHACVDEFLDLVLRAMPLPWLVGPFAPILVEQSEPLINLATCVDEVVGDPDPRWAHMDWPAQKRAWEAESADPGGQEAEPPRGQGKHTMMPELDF
The experiment is described as follows: affinity purification with mass spectrometry; FLAG immunoprecipitation (Pierce Anti-FLAG Magnetic Agarose, overnight 4°C) from lysates of primary MHC-Plin5 and WT cardiomyocytes (1% Triton X-100, 150 mM NaCl, pH 7.4); TMT10plex nano-LC-MS/MS.

In publication PMC9887753 one finds binding data, which are given here for one substance.

These are yes or no findings as the source states them, for the method shown. Binding seen in cells or lysates may run through a third protein. These calls come from enrichment with a bait or labelling near it, and not all partners need be listed. Where a sequence is shown, tags or fusion partners need not be part of it.

For the substance “sarcoplasmic/endoplasmic reticulum Ca2+ ATPase 2 (SERCA2) (from UniProt O55143-2)”, the binding result was “binds”.
